Laboratory results: publication PMC6824563
Results are given in words; binding and its absence hold for the method and conditions named. In cells and extracts the contact can be indirect. Some binding calls cover weakened binding; strength is not graded here. Tags and fused reporters may be left off the sequences shown.

Legend:
[1] = target: T1, HA::CEH-60::VC155 (CEH-60, C. elegans homeobox 60, PBC-class Hox cofactor) (C. elegans) (UniProt Q45EK2); assay: co-IP; anti-HA agarose beads with lysate of the heat-shock inducible BiFC strains (at least 4 mg worm protein), 4°C overnight; lysis buffer 25 mM Tris-HCl pH 7.5, 100 mM NaCl, 1 mM EDTA, 0.5% NP-40; western blot with anti-HA and anti-MYC
T1 sequence: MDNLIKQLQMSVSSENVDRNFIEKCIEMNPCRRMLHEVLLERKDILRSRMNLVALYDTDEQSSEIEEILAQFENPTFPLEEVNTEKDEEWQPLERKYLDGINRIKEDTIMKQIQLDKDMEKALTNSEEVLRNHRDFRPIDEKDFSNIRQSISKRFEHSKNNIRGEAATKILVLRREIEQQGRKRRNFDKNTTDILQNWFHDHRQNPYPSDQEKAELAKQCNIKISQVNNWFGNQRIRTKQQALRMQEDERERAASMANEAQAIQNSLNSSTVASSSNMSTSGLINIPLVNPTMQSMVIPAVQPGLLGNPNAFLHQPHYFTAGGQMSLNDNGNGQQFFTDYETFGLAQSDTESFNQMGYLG

[2] = target: T2, HA::CEH-20::VC155 (CEH-20, PBC-class Hox cofactor) (C. elegans) (UniProt P41779); assay: as above
T2 sequence: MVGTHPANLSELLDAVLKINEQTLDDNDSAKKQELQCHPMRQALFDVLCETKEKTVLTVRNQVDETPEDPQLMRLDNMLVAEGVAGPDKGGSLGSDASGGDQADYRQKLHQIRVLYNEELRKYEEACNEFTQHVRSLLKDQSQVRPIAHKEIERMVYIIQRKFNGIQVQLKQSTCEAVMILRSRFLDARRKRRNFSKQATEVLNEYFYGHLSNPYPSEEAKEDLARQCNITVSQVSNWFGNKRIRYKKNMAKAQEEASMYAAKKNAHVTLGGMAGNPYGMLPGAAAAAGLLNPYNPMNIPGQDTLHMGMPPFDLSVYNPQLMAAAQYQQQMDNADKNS

[3] = target: T1, HA::CEH-60::VC155 (CEH-60, C. elegans homeobox 60, PBC-class Hox cofactor) (C. elegans); assay: split reporter; BiFC with Venus halves under the endogenous promoters (unc-62p, ceh-60p) in living C. elegans; no heat shock; signal in intestinal nuclei of adults
[4] = target: T1, HA::CEH-60::VC155 (CEH-60, C. elegans homeobox 60, PBC-class Hox cofactor) (C. elegans); assay: split reporter; BiFC with Venus halves (VN173 on UNC-62, VC155 on the partner) under the heat-shock promoter hsp-16.41p in living day 1 adult C. elegans; heat shock 2 hours at 33°C, imaged 5-6 hours later; fluorescence quantified in 6 intestinal nuclei per animal
[5] = target: T2, HA::CEH-20::VC155 (CEH-20, PBC-class Hox cofactor) (C. elegans); assay: as above

Measured: binding

B1: MYC::UNC-62::VN173 (UNC-62, uncoordinated 62, MEIS-class transcription factor) (protein, UniProt Q9N5D6 1-564)
chain: MSGDSKVWAHASADTWAVQNGISTYDLDTSSIKREKRDHNEQFNDGYGPPPGSASADPASYIADPAAFYNLYTNMGGAPTSTPMMHHEMGEAMKRDKESIYAHPLYPLLVLLFEKCELATSTPRDTSRDGSTSSDVCSSASFKDDLNEFVRHTQENADKQYYVPNPQLDQIMLQSIQMLRFHLLELEKVHELCDNFCNRYVVCLKGKMPLDIVGDERASSSQPPMSPGSMGHLGHSSSPSMAGGATPMHYPPPYEPQSVPLPENAGVMGGHPMEGSSMAYSMAGMAAAAASSSSSSNQAGDHPLANGGTLHSTAGASQTLLPIAVSSPSTCSSGGLRQDSTPLSGETPMGHANGNSMDSISEAGDEFSVCGSNDDGRDSVLSDSANGSQNGKRKVPKVFSKEAITKFRAWLFHNLTHPYPSEEQKKQLAKETGLTILQVNNWFINARRRIVQPMIDQNNRAGRSGQMNVCKNRRRNRSEQSPGPSPDSGSDSGANYSPDPSSLAASTAMPYPAEFYMQRTMPYGGFPSFTNPAMPFMNPMMGFQVAPTVDALSQQWVDLSAPHE
binds: all assays above
